# Assay results: the M2OR odorant receptor database
# Chains of the proteins cited; added tags and fusions are not shown. Chains listed by the source or under a name are the forms on record and can include a tag or linker.
# O4F17, as listed by the source: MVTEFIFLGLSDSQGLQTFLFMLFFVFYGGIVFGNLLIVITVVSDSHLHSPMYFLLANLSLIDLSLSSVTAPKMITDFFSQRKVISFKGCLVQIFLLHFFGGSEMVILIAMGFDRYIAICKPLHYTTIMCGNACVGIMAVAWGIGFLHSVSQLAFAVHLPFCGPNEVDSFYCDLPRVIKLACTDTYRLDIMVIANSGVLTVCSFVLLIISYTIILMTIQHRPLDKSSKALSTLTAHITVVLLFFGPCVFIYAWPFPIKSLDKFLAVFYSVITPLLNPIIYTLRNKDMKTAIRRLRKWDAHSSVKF
# O4C46, as listed by the source: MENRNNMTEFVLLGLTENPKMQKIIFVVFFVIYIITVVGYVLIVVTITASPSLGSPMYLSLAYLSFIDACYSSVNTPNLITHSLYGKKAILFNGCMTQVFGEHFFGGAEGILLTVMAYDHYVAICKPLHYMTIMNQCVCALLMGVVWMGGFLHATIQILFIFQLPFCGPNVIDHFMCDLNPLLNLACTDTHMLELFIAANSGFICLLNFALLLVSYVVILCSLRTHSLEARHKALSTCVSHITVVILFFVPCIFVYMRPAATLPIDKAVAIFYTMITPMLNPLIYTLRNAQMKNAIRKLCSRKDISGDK
# O4A15, as listed by the source: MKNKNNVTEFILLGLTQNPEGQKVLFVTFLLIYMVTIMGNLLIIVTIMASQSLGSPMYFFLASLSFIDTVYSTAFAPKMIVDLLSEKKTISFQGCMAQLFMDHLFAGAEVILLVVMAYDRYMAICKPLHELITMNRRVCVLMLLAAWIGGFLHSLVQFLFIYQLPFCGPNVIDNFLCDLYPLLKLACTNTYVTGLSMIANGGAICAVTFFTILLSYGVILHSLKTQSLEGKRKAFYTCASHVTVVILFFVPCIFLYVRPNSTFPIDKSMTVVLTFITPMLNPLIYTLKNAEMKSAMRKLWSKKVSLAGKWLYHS
# Substitutions are numbered along the chain they refer to. Only a part is listed here, and it is no random draw. Calls are pooled over several reports, among them a noisy single-well screen. The list shows a part of the results.
# What was measured:
# Conditions in all cases: stereoisomer not certain
# [1] = tested on: T1, O2T11
# T1 sequence (whole entry): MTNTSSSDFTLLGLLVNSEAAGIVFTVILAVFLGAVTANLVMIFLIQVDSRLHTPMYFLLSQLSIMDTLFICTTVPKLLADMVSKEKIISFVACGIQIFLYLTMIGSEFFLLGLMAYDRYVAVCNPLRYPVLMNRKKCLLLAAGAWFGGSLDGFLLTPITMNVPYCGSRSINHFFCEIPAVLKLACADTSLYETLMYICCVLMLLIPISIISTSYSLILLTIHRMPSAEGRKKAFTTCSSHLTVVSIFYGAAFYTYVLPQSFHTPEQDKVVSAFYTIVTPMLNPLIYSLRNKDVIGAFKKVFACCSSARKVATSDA
# Method in brief: (§1)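 Values were gathered from published papers (main text and supplementary material), with extra details requested from the original authors when needed, and checked for typos and inconsistencies. Each receptor–molecule pair is called responsive (active) if the original authors judged the measured signal statistically different from baseline, and non-responsive (inactive) otherwise. Assay methods varied by source, often transient mammalian cell-line luciferase assays. Recorded details include cell line, G-protein, co-transfected protein and tags.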
# [2] = tested on: T2, O2T29
# T2 sequence (whole entry): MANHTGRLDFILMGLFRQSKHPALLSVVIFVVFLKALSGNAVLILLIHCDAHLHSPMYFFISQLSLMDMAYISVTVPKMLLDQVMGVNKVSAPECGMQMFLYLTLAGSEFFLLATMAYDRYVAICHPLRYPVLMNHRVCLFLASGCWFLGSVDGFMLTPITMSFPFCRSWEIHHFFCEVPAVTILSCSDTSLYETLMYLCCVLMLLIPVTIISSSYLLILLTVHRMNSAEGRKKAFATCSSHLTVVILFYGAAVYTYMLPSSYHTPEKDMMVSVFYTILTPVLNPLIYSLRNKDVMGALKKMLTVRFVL
# Method in brief: as §1
# [3] = tested on: T3, O2T29; remark: listed apart in the source
# T3 sequence (whole entry): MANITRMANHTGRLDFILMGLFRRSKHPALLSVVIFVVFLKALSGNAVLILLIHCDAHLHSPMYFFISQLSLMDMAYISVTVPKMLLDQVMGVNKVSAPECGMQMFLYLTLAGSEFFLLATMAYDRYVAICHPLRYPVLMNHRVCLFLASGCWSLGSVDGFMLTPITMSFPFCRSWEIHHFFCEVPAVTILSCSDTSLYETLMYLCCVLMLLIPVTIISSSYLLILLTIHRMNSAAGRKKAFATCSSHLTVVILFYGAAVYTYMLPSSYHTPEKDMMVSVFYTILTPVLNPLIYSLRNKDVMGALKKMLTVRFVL
# Method in brief: as §1
# [4] = tested on: T4, O2T33
# T4 sequence (whole entry): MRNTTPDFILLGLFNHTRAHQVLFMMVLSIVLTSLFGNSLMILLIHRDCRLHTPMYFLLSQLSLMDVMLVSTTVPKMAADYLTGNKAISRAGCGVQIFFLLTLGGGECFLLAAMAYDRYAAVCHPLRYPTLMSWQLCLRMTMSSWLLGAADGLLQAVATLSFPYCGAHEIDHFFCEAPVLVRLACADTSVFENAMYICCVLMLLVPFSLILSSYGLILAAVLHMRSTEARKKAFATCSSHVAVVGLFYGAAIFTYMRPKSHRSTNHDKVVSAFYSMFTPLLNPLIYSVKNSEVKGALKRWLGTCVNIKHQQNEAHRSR
# Method in brief: as §1
# [5] = tested on: T5, O2T34
# T5 sequence (whole entry): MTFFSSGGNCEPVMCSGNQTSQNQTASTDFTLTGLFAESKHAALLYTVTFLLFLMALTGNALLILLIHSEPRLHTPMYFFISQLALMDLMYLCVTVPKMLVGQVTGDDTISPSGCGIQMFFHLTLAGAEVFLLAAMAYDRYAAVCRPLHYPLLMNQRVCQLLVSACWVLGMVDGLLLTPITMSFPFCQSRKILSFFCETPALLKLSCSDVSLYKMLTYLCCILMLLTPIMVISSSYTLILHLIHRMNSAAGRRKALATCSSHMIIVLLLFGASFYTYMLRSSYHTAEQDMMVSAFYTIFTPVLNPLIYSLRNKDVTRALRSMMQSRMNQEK
# Method in brief: as §1
# [6] = tested on: T6, O2T35
# T6 sequence (whole entry): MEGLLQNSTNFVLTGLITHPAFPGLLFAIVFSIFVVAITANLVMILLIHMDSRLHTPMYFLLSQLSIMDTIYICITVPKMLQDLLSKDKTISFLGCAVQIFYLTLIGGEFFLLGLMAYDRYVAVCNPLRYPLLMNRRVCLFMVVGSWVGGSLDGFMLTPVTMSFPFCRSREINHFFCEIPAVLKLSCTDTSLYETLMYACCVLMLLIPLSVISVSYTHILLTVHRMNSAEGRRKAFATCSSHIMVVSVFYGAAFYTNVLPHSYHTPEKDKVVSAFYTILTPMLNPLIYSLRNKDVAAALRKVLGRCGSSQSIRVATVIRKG
# Method in brief: as §1
# [7] = tested on: O4A15
# Method in brief: as §1
# [8] = tested on: T7, O4A47
# T7 sequence (whole entry): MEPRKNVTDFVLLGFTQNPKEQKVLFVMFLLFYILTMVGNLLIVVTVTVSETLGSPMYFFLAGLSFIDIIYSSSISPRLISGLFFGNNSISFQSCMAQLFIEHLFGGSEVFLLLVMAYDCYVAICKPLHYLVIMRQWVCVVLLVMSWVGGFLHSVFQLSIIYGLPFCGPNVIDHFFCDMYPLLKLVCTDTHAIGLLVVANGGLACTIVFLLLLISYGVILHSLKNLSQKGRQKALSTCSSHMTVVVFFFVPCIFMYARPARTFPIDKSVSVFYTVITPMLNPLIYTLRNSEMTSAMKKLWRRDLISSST
# Method in brief: as §1
# [9] = tested on: O4C46
# Method in brief: as §1
# [10] = tested on: T8, O4F17
# T8 sequence (whole entry): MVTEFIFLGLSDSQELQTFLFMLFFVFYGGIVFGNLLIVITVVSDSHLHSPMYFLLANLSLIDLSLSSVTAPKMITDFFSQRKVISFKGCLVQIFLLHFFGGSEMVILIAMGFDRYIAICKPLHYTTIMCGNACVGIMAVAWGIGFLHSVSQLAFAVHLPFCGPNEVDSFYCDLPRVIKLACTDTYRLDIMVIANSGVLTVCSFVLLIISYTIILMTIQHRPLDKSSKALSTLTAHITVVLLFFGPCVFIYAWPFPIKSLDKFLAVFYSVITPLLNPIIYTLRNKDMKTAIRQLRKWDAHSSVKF
# Method in brief: as §1
# [11] = tested on: T9, O4F17; remark: listed apart in the source
# T9 sequence (whole entry): T8 sequence (whole entry) with E15G, Q293R
# Method in brief: as §1
# [12] = tested on: T10, O4F21
# T10 sequence (whole entry): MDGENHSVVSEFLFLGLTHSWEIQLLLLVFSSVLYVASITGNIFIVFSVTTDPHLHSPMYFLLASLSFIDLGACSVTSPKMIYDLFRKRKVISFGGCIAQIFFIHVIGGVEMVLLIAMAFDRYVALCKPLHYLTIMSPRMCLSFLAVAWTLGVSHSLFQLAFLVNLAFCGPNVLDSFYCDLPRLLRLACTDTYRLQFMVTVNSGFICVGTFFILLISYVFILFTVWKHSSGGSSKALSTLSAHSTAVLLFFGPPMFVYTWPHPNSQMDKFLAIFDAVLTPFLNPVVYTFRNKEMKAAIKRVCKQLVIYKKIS
# Method in brief: as §1
# [13] = tested on: T11, O51A4
# T11 sequence (whole entry): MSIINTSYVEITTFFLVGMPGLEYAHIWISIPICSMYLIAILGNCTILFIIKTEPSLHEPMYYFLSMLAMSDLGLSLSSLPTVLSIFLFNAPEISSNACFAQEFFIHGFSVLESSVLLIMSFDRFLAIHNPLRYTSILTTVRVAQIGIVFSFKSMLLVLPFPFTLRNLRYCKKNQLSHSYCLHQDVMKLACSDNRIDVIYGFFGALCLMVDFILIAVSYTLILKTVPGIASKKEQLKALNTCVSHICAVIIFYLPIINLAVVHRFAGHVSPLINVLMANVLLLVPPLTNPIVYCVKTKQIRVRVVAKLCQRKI
# Method in brief: as §1
# [14] = tested on: T12, O51B4
# T12 sequence (whole entry): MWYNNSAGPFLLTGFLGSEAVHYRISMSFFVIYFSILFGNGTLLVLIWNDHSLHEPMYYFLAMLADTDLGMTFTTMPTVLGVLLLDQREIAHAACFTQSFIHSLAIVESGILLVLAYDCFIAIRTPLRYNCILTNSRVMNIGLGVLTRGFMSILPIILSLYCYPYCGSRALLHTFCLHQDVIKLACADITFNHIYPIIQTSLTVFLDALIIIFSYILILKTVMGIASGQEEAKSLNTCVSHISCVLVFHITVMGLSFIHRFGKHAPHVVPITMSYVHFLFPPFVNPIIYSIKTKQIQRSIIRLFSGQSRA
# Method in brief: as §1
# [15] = tested on: T13, O51B5
# T13 sequence (whole entry): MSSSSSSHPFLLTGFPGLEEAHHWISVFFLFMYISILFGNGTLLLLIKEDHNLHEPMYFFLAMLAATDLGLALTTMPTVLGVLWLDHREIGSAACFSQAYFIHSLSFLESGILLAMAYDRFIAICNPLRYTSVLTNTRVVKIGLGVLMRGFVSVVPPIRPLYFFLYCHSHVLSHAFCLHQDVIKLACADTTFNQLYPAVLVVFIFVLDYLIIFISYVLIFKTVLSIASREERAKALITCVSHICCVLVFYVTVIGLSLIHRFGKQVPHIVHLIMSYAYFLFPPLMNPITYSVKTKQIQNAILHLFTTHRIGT
# Method in brief: as §1
# [16] = tested on: T14, O51B6
# T14 sequence (whole entry): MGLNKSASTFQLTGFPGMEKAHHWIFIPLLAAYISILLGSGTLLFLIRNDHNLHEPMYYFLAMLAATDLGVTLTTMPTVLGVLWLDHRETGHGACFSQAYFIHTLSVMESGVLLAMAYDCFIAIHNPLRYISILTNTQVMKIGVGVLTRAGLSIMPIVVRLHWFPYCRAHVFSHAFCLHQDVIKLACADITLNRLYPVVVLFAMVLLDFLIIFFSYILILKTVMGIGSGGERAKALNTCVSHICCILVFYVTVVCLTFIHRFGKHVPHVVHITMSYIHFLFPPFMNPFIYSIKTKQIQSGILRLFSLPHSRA
# Method in brief: as §1
# [17] = tested on: T15, O51E1
# T15 sequence (whole entry): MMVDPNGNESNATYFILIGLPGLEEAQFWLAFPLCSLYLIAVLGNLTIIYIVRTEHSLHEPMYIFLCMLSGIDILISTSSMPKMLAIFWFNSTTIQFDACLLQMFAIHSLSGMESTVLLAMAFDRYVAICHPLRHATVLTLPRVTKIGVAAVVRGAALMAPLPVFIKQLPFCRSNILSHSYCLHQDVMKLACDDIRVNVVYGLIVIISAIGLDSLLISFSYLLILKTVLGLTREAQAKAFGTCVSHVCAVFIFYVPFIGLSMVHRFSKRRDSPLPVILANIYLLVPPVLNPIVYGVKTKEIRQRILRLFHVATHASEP
# Method in brief: as §1
# [18] = tested on: T16, O51F1
# T16 sequence (whole entry): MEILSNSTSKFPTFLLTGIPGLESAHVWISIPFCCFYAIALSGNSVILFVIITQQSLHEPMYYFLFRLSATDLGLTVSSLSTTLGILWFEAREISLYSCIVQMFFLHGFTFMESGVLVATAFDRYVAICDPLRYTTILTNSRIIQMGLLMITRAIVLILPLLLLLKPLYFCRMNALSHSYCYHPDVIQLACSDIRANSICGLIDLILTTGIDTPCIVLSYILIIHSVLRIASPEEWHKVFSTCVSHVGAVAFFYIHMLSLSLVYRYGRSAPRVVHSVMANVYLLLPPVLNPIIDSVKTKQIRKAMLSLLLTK
# Method in brief: as §1
# [19] = tested on: T17, O51F2
# T17 sequence (whole entry): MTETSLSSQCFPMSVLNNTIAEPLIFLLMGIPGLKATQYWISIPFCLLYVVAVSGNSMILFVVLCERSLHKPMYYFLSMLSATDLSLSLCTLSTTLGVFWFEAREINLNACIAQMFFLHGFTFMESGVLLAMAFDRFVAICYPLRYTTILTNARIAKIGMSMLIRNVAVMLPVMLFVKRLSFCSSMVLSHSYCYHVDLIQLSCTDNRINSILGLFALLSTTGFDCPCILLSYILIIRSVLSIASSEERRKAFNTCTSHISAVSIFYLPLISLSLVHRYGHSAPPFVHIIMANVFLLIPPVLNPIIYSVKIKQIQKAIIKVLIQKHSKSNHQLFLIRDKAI
# Method in brief: as §1
Structure (SMILES),odorant receptor agonist call [1],odorant receptor agonist call [2],odorant receptor agonist call [3],odorant receptor agonist call [4],odorant receptor agonist call [5],odorant receptor agonist call [6],odorant receptor agonist call [7],odorant receptor agonist call [8],odorant receptor agonist call [9],odorant receptor agonist call [10],odorant receptor agonist call [11],odorant receptor agonist call [12],odorant receptor agonist call [13],odorant receptor agonist call [14],odorant receptor agonist call [15],odorant receptor agonist call [16],odorant receptor agonist call [17],odorant receptor agonist call [18],odorant receptor agonist call [19]
CC(C)=CCCC(C)=CC=O,inactive,inactive,inactive,active,inactive,inactive,inactive,inactive,inactive,inactive,inactive,inactive,inactive,inactive,inactive,active,inactive,inactive,inactive
c1cnccn1,inactive,inactive,inactive,inactive,inactive,inactive,inactive,inactive,inactive,inactive,inactive,inactive,inactive,inactive,inactive,inactive,inactive,inactive,inactive
CC1=NC(C)SC1C (stereo not given),inactive,,inactive,,inactive,,inactive,,inactive,inactive,,,inactive,,,,inactive,inactive,inactive
C=CC(C)(O)CCC=C(C)C (stereo not given),inactive,inactive,inactive,inactive,inactive,inactive,inactive,inactive,inactive,inactive,inactive,inactive,inactive,inactive,inactive,inactive,inactive,inactive,inactive
C=C(C)C1CCC2=CC(=O)CC(C)C2(C)C1 (stereo not given),,,,active,,active,,inactive,,,inactive,inactive,,inactive,active,inactive,,,
CC(=O)c1ccccc1,inactive,,inactive,,inactive,,inactive,,inactive,inactive,,,inactive,,,,inactive,inactive,inactive
